The test system of the assay is L1210 leukemia ip in BDF1 mice, survival T/C. As to the kind of experiment: NCI In Vivo Anticancer Drug Screen. Data for tumor model L1210 Leukemia (intraperitoneal) in B6D2F1 (BDF1) mice. The following applies: T/C endpoint: mean survival time, higher T/C = longer survival.
The mark [1] stands for this setting: dose: 200.0 mg/kg/injection, schedule: Q01DX001 (ip), vehicle: carboxymethylcellulose (CMC).
[2] abbreviates: dose: 400.0 mg/kg/injection, schedule: Q01DX001 (ip), vehicle: carboxymethylcellulose (CMC).
[3] abbreviates: dose: 25.0 mg/kg/injection, schedule: Q01DX009 (ip), vehicle: Klucel (hydroxypropylcellulose) (HPC).
Setting [4] is: dose: 400.0 mg/kg/injection, schedule: Q04DX002 (ip), vehicle: Klucel (hydroxypropylcellulose) (HPC).
Where [5] appears, read: dose: 400.0 mg/kg/injection, schedule: Q01DX009 (ip), vehicle: Klucel (hydroxypropylcellulose) (HPC).
Setting [6] is: dose: 400.0 mg/kg/injection, schedule: Q04DX003 (ip), vehicle: saline with Tween-80.
Setting [7] is: dose: 50.0 mg/kg/injection, schedule: Q01DX009 (ip), vehicle: Klucel (hydroxypropylcellulose) (HPC).
Setting [8] is: dose: 100.0 mg/kg/injection, schedule: Q04DX003 (ip), vehicle: saline.
The mark [9] stands for this setting: dose: 200.0 mg/kg/injection, schedule: Q04DX003 (ip), vehicle: saline.
[10] abbreviates: dose: 400.0 mg/kg/injection, schedule: Q04DX003 (ip), vehicle: saline.
The mark [11] stands for this setting: dose: 400.0 mg/kg/injection, schedule: Q04DX003 (ip), vehicle: Klucel (hydroxypropylcellulose) (HPC).

Structures are written as SMILES. The list is a part of this screen's results and no random one: it gathers tests that were run many times, whatever their T/C, doses with no T/C, and many T/C values between a quarter and a half above the control. Other doses and runs of a compound stand elsewhere. T/C: endpoint of the treated group in % of that of the vehicle group. Some entries give survivors of the animals treated and no T/C: the source holds a T/C of zero for them, seemingly a mark for toxic or unscored doses. Some doses without a T/C left all or most animals alive at the check, yet need not have been tolerated: survival well below the control is almost never listed, so the zero probably covers shortened survival too. Counts of survivors are from the toxicity check (mostly the fifth day) where no day follows; animals may have died later. Schedules are NCI's codes, taken here to give the interval after Q, in days (D) or hours (H), and the number of doses after X. Some entries hold several experiments; their values stand side by side, smallest first. Some schedules carry Z or #; the key to these is not given. Where survival is the endpoint, this PubChem deposit counts one and a half times the control or more as active, and values a quarter to a half above the control carry no call in these data; other NCI protocols may use other cut-offs.

In the case of `O=C(CCCC(=O)N/N=C/c1cccc(Br)c1)N/N=C\c1cccc(Br)c1`, the survivor count under setting [1] is reported as 4 of 4 and the survivor count under setting [2] is recorded as 4 of 4.

With `Cc1nc2c(N)nn(C)c2nc1C`, where the note is “dose: 400.0 mg/kg/injection, schedule: Q01DX009 (ip), vehicle: saline with Tween-80”, the survivor count was 3 of 6.

Turning to `C(=P(c1ccccc1)(c1ccccc1)c1ccccc1)[P+](c1ccccc1)(c1ccccc1)c1ccccc1.[Cl][Fe]([Cl])([Cl])[Br]`, the survivor count is 1 of 6 (dose: 3.12 mg/kg/injection, schedule: Q01DX009 (ip), vehicle: Klucel (hydroxypropylcellulose) (HPC)); 0 of 6 and 6 of 6 (dose: 6.25 mg/kg/injection, schedule: Q01DX009 (ip), vehicle: Klucel (hydroxypropylcellulose) (HPC)); 0 of 6 (dose: 12.5 mg/kg/injection, schedule: Q01DX009 (ip), vehicle: Klucel (hydroxypropylcellulose) (HPC)); 0 of 6 under setting [3]; 3 of 3 (dose: 25.0 mg/kg/injection, schedule: Q04DX002 (ip), vehicle: Klucel (hydroxypropylcellulose) (HPC)); 0 of 3 (dose: 50.0 mg/kg/injection, schedule: Q04DX002 (ip), vehicle: Klucel (hydroxypropylcellulose) (HPC)). Also, the survivor count (dose: 100.0 mg/kg/injection, schedule: Q04DX002 (ip), vehicle: Klucel (hydroxypropylcellulose) (HPC)) is 0 of 3 and 1 of 3; the survivor count (dose: 200.0 mg/kg/injection, schedule: Q04DX002 (ip), vehicle: Klucel (hydroxypropylcellulose) (HPC)) is recorded as 0 of 3; the survivor count under setting [4] is on record as 0 of 3.

As for `CCCc1cc(=O)c2ccccc2n1COC(C)=O`, the survivor count under setting [2] is 2 of 4.

For `O=C(CCCCC(=O)N/N=C/c1ccncc1)N/N=C/c1ccncc1`, the survivor count (dose: 200.0 mg/kg/injection, schedule: Q01DX009 (ip), vehicle: saline with Tween-80) was 6 of 6.

`Cc1no[n+]([O-])c1C(=O)O`: the survivor count under setting [4] is given as 1 of 3.

`O=[N+]([O-])/C=C\c1ccc(/C=C/[N+](=O)[O-])cc1`: the survivor count reads like this: (dose: 6.0 mg/kg/injection, schedule: Q01DX009 (ip), vehicle: other) 2 of 6; (dose: 12.5 mg/kg/injection, schedule: Q04DX003 (ip), vehicle: other) 1 of 6; (dose: 25.0 mg/kg/injection, schedule: Q04DX003 (ip), vehicle: other) 1 of 6; (dose: 50.0 mg/kg/injection, schedule: Q04DX003 (ip), vehicle: other) 1 of 6; (dose: 100.0 mg/kg/injection, schedule: Q04DX003 (ip), vehicle: other) 0 of 6; (dose: 200.0 mg/kg/injection, schedule: Q04DX003 (ip), vehicle: other) 0 of 6. In addition, the survivor count (dose: 400.0 mg/kg/injection, schedule: Q04DX003 (ip), vehicle: other) is reported as 0 of 6.

For the compound `O=C(O)C1=CCCc2ccc3ccccc3c21`, the survivor count under setting [5] was 4 of 6.

Regarding `Nc1nc2c(ncn2-c2cccc(Cl)c2)c(=O)[nH]1`, the survivor count under setting [6] is on record as 6 of 6.

As for `CO[C@H](C)[C@](O)(C(=O)OCC1=CCN2CC[C@@H](O)[C@H]12)C(C)C`, where the note is “dose: 150.0 mg/kg/injection, schedule: Q01DX009 (ip), vehicle: saline”, the T/C is 127 % of control. Also, the survivor count (dose: 225.0 mg/kg/injection, schedule: Q01DX009 (ip), vehicle: saline) was 5 of 6 and 6 of 6.

As to `N=C(N)c1nn(C2OC(CO)C(O)C2O)c2ncnc(N)c12` (centres undefined), the T/C under setting [3] was 140 % of control. In addition, the survivor count was 3 of 6 under setting [7]; 1 of 6 (dose: 100.0 mg/kg/injection, schedule: Q01DX005 (ip), vehicle: saline); 0 of 6 (dose: 200.0 mg/kg/injection, schedule: Q01DX005 (ip), vehicle: saline).

`CN1C2CCC1CN(Cc1ccccc1)C2`: the survivor count under setting [8] is 1 of 6, the survivor count under setting [9] is 0 of 6 and the survivor count under setting [10] is 0 of 6.

On to `COc1ccc(OC)c(NC(=O)Nc2ccc(F)cc2)c1`, for which the survivor count (dose: 50.0 mg/kg/injection, schedule: Q04DX002 (ip), vehicle: carboxymethylcellulose (CMC)) is 3 of 3.

In the case of `OCC#CC(O)c1ccccc1` (centres undefined), the survivor count is recorded as 6 of 6 (dose: 25.0 mg/kg/injection, schedule: Q04DX003 (ip), vehicle: acetone); 2 of 6 (dose: 100.0 mg/kg/injection, schedule: Q01DX001 (ip), vehicle: saline); 1 of 6 (dose: 170.0 mg/kg/injection, schedule: Q01DX009 (ip), vehicle: saline); 2 of 6 (dose: 200.0 mg/kg/injection, schedule: Q01DX001 (ip), vehicle: saline); 0 of 6 (dose: 400.0 mg/kg/injection, schedule: Q01DX001 (ip), vehicle: saline).

`C/C(=N/N=C(N)N)c1ccc(/C(C)=N/N=C(N)N)cc1`: where the note is “dose: 60.0 mg/kg/injection, schedule: Q01DX Z (ip), vehicle: carboxymethylcellulose (CMC)”, the T/C was 125 % of control. In addition, the survivor count runs as follows: (dose: 60.0 mg/kg/injection, schedule: Q01DX Z (ip), vehicle: saline) 5 of 6; (dose: 120.0 mg/kg/injection, schedule: Q01DX Z (ip), vehicle: saline) 0 of 6.

`CCN(CC)CCOc1ccccc1C(=O)CCc1ccccc1`: the survivor count under setting [8] is listed as 2 of 6, the survivor count under setting [9] is reported as 0 of 6 and the survivor count under setting [10] was 0 of 6.

Consider `CCC1CC2c3cc(OC)c(OC)cc3CCN2CC1(O)c1ccccc1` (centres undefined), for which the survivor count was 0 of 6 (dose: 100.0 mg/kg/injection, schedule: Q04DX003 (ip), vehicle: carboxymethylcellulose (CMC)); 3 of 6 under setting [1]; 0 of 6 (dose: 200.0 mg/kg/injection, schedule: Q04DX003 (ip), vehicle: carboxymethylcellulose (CMC)); 0 of 6 under setting [2]; 0 of 6 (dose: 400.0 mg/kg/injection, schedule: Q04DX003 (ip), vehicle: carboxymethylcellulose (CMC)).

Regarding `COC(=O)/C(C#N)=C\c1ccccc1`, the survivor count under setting [6] is given as 0 of 6.

For the compound `Nc1cc([N+](=O)[O-])ccc1Cl`, the survivor count under setting [5] is on record as 1 of 6.

For the compound `N#Cc1ccc(S(=O)(=O)Cl)cc1`, the survivor count is, setting by setting: (dose: 200.0 mg/kg/injection, schedule: Q04DX003 (ip), vehicle: Klucel (hydroxypropylcellulose) (HPC)) 4 of 6; under setting [11], 0 of 6.

For `CC1CN1C1=C(Cl)C(=O)C(N2CC2C)=C(Cl)C1=O` (centres undefined), the survivor count was 0 of 6 under setting [3]; 0 of 6 under setting [7]; 0 of 6 (dose: 100.0 mg/kg/injection, schedule: Q01DX009 (ip), vehicle: Klucel (hydroxypropylcellulose) (HPC)); 0 of 6 (dose: 200.0 mg/kg/injection, schedule: Q01DX009 (ip), vehicle: Klucel (hydroxypropylcellulose) (HPC)).

With `CC(C)C(CCN1CCCC1)(C(N)=O)c1cccc2ccccc12` (centres undefined), the survivor count under setting [11] was 4 of 6.
